Among the data in paper PMC12649893 are binding values, retold here.

Amino acid sequences for entries named in this document (tags omitted). A change or cut given only in a name is not applied to a line headed by its entry. Chains listed by the source or under a name are the forms on record and can include a tag or linker. Residues count along the entry.
Receptor FcγRIIIa-176V extracellular domain (P08637, form named): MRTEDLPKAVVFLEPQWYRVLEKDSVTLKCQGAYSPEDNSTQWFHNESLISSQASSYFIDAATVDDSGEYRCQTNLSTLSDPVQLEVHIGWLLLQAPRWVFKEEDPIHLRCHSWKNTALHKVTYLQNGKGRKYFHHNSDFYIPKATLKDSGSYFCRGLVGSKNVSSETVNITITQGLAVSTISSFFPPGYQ
UniProt P12314, residues 16-292: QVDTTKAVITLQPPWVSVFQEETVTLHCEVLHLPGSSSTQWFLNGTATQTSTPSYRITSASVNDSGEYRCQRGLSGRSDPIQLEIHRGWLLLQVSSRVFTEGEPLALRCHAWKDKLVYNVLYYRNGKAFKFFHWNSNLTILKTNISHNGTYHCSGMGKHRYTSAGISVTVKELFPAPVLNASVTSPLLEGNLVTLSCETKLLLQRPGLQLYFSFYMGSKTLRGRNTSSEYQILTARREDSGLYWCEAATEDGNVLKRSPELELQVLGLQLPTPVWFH

The target of experiment [1] is Receptor FcγRIIIa-176V extracellular domain (UniProt P08637). Kind of experiment: BLI; controls for non-specific interactions: antigens on sensors loaded with Fc receptors without antibodies; both purified.
Experiment [2] deals with Receptor FcγRIa extracellular domain (UniProt P12314). Described as above.

No constants are given. Whether binding was seen depends on the method and setting.

B1: Triggering receptor expressed on myeloid cells 2 (TREM-2) extracellular fragment (domain or fragment, UniProt Q9NZC2-1 19-174)
chain: HNTTVFQGVAGQSLQVSCPYDSMKHWGRRKAWCRQLGEKGPCQRVVSTHNLWLLSFLRRWNGSTAITDDTLGGTLTITLRNLQPHDAGLYQCQSLHGSEADTLRKVLVEVLADPLDHRDAGDLWFPGESESFEDAHVEHSISRSLLEGEIPFPPTS
With B1, the binding entry in experiment [1] and in experiment [2] was “no binding” each time.
